The values below come from article PMC7408019.

By UniProt entry, the sequences of proteins in these tests, tags left out. Where a name states a change or a piece, a line headed by the entry shows the natural chain unless it says otherwise. Chains listed by the source or under a name are the forms on record and can include a tag or linker.
UniProt P13569: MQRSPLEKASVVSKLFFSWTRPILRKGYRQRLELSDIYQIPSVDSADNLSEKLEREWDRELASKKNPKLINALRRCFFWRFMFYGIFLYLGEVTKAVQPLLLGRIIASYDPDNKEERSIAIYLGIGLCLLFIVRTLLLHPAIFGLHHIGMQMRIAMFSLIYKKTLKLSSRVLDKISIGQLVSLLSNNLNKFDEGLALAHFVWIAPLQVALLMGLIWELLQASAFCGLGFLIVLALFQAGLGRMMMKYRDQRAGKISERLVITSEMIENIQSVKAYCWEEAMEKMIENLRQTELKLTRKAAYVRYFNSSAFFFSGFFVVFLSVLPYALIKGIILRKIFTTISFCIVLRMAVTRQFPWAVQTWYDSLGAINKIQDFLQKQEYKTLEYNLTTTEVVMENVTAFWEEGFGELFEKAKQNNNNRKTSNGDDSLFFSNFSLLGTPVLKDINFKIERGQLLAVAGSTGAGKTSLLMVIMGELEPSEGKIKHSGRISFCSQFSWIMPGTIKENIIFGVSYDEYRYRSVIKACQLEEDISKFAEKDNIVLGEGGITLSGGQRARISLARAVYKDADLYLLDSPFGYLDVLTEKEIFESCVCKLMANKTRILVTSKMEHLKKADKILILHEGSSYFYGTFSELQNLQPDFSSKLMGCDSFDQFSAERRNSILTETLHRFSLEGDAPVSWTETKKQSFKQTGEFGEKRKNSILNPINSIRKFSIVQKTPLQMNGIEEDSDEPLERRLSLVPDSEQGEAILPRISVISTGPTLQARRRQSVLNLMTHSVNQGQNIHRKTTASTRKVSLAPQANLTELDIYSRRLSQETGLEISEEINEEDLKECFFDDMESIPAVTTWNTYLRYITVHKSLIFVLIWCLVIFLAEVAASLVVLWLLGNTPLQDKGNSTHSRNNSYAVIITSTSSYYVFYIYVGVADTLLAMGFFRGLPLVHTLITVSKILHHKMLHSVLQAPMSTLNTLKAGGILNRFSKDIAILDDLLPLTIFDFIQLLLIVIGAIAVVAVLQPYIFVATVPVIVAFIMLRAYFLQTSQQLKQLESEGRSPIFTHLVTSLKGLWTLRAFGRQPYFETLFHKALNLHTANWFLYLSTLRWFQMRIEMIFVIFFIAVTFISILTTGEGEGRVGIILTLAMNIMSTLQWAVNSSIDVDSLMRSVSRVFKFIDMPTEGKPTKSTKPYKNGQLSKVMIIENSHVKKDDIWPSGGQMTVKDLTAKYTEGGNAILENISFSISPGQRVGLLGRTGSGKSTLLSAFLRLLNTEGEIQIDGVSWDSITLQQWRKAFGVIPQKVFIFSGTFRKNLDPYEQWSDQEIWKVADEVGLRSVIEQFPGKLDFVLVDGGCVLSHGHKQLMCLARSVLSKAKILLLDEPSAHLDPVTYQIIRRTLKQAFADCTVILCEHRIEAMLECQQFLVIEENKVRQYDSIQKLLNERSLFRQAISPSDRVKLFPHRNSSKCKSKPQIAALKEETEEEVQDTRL
F508del-CFTR (P13569, form named): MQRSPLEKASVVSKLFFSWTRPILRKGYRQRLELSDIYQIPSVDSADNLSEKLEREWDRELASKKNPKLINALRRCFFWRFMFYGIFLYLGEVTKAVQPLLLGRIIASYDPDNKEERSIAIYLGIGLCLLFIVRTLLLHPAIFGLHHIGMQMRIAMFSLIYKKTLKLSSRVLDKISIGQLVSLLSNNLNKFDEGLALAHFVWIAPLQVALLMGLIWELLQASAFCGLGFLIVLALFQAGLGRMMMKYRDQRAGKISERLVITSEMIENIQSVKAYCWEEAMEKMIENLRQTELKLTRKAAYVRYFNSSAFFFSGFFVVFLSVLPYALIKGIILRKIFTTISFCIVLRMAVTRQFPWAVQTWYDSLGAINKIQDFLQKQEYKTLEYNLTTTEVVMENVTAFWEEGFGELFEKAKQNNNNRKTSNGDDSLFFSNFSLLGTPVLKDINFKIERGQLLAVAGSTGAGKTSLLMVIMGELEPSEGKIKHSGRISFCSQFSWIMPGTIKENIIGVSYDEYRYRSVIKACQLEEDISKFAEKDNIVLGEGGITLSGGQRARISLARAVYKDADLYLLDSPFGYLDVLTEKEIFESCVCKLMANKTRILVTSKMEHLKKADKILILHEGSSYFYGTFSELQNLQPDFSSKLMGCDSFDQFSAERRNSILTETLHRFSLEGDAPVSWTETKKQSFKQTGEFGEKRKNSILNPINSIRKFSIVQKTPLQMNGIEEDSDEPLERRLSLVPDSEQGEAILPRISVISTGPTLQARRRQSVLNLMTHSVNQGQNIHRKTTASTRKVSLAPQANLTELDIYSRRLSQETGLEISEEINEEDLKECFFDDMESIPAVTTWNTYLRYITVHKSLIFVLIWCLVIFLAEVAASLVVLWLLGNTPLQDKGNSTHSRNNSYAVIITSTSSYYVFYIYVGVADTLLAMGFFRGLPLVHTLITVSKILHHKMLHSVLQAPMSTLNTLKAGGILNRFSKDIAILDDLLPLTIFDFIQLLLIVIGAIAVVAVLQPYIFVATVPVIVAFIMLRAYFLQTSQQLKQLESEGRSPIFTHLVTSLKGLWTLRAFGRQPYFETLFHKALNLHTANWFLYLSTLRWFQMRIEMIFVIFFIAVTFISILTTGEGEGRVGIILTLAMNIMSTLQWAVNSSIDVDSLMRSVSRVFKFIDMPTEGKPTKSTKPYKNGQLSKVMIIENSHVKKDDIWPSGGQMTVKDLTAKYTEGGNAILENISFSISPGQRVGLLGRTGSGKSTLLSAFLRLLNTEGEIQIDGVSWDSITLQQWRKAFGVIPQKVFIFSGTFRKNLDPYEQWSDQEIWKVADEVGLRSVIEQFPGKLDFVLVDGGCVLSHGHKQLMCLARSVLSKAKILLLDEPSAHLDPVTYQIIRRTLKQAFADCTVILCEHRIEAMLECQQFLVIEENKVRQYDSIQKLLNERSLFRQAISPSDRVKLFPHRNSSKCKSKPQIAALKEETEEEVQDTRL
UniProt O43474: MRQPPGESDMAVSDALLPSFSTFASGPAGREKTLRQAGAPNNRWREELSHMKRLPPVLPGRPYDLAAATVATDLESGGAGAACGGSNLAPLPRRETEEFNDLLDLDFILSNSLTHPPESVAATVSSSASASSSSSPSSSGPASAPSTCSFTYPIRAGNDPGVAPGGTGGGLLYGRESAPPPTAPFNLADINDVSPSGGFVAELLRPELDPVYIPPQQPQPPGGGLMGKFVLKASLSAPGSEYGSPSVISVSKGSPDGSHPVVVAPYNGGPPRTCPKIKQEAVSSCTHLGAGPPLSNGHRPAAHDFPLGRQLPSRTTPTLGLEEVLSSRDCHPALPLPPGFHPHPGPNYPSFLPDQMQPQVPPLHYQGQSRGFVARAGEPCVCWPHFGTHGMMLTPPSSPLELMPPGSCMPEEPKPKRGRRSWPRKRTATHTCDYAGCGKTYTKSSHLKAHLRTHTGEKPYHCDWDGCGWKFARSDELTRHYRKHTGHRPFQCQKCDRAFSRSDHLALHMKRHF

The target of assay [1] is F508del-CFTR (human) (UniProt P13569). Nature of the assay: co-IP; lysates of CFBE wt-CFTR and F508del-CFTR cells in PD buffer (50 mM Tris-HCl, 0.1 mM NaCl, 1% NP40, 10% glycerol, pH 7.5), pre-cleared with Protein-G agarose; overnight at 4 °C with anti-CFTR or anti-KLF4; control without antibody; Western blot.
For assay [2], the target named is wt-CFTR (cystic fibrosis transmembrane conductance regulator) (human) (UniProt P13569). The description is as above.

No constants are given. Whether binding was seen depends on the method and setting. In cells and extracts the contact can be indirect.

As for “Krüppel-like factor 4 (from UniProt O43474 1-513)”, the binding entry in assay [1] and in assay [2] was “no binding” each time.
